Results reported in PubChem BioAssay AID2685 (National Center for Advancing Translational Sciences (NCATS), 2010).
Some of the results follow. The main result of the screen is listed elsewhere. These columns were measured beside it and carry no call. Most of these compounds were active or inconclusive in the main read-out, so they are no random draw. The note in brackets gives the kind of curve behind each potency; many fits are weak.

Assay: qHTS Assay for Lipid Storage Modulators in Drosophila S3 Cells;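 on cell number change: cells counted by Cell Tracker Red CMTPX staining in the red channel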
Settings: BODIPY lipid droplet fluorescence, 18-24 h; for cell number change: measured here: cell count max response, cells fed with added oleic acid
Method in brief: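 Laser-scanning cytometry quantifies lipid droplet accumulation (500–530 nm total intensity; droplet/cell object ratio) in oleic acid-fed (400 uM added) Drosophila S3 cells treated with a concentration series. 20 uM Triacsin C defined 100% inhibition.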

[1] = measured here: cell number channel AC50, cells fed with added oleic acid
[2] = measured here: lipid fluorescence (Fed channel) AC50, cells fed with added oleic acid

Compound	cell number change	AC50 [1]	AC50 [2]
CC(NC(=O)c1cccnc1Sc1ccccc1)c1ccc(S(N)(=O)=O)cc1 (stereo not given)	22.7%	4.11 µM [rising, full curve, poor fit]	18.4 µM [rising, partial curve]
CCSC1=NC(=O)/C(=C2/C=Cc3ccccc3N2CC)S1	-94.1%	29.1 µM [falling, single point]	29.1 µM [falling, single point]
CC12CCC(=O)N1C(C(=O)Nc1ccc(F)c(F)c1F)CS2 (stereo not given)	-9.96%		0.651 µM [falling, single point]
O=C(COC(=O)c1cc([N+](=O)[O-])ccc1NCc1ccccc1Cl)NCC(F)(F)F	-14.7%		7.31 µM [falling, partial curve, poor fit]
Cc1cc(=O)n(CCO)c(O)c1C#N	-6.72%		6.51 µM [falling, partial curve]
Cn1nc([N+](=O)[O-])nc1Oc1ccccc1N	13%		
COc1ccc(S(=O)Cc2ccc(C(=O)N3CCN(C(=O)c4ccco4)CC3)o2)cc1 (stereo not given)	-51%	29.1 µM [falling, single point]	29.1 µM [falling, single point]
Cc1nc2nc(-c3ccco3)[nH]n2c(=O)c1Cc1ccccc1	-128%	23.1 µM [falling, partial curve]	4.11 µM [falling, full curve]
CCOC(=O)C(=O)N/N=C(/c1ccccc1)c1ccc(OC)cc1	-29.3%	1.3 µM [falling, full curve, poor fit]	1.03 µM [falling, full curve, poor fit]
CC(C)(C)NC(=O)COC(=O)c1ccc(F)cc1Cl	12.9%		
COC(=O)c1c(NC(=O)c2nc3ccccc3s2)sc2c1CCN(C(C)=O)C2	-37.8%	23.1 µM [falling, partial curve]	3.66 µM [falling, full curve]
O=C(O)CP(=O)(c1ccccc1)c1ccccc1	-1.46%		6.51 µM [falling, single point]
CSc1nc(O)cc(=O)n1-c1ccc(F)cc1	8.25%	6.51 µM [falling, single point]	6.51 µM [falling, single point]
CC12CCC(=O)N1C(C(=O)Nc1nnc(SCc3ccccc3)s1)CS2 (stereo not given)	-3.06%		0.103 µM [falling, full curve, poor fit]
COC(=O)COc1ccc(S(=O)(=O)N2CCOCC2)cc1C	-18.9%	0.0184 µM [falling, full curve, poor fit]	0.146 µM [falling, full curve]
O=C(NC1CCCC1)c1cccc(S(=O)(=O)N2CCCCC2)c1	-8.02%		0.326 µM [falling, partial curve, poor fit]
Cc1ccccc1NCC(=O)N/N=C/c1c(C)c(C(=O)c2ccc(Cl)cc2)n2ccccc12	-2.73%		
CCOC(=O)c1ccc(NC(=O)Cn2nnc(-c3ccccc3F)n2)cc1		1.64 µM [falling, single point]	13 µM [rising, partial curve, poor fit]
CN(Cc1ccccn1)Cc1nc(COc2ccccc2)no1	52.1%	5.17 µM [rising, full curve]	25.9 µM [rising, partial curve]
Cc1ccc(CN(CC(=O)NC2CCCCC2)C(=O)c2csnn2)cc1	6.84%		3.66 µM [rising, partial curve]

Compound	cell number change	AC50 [1]	AC50 [2]
CC1(C)CC(=O)C2=C(C1)Nc1ncnn1C2c1cccs1 (stereo not given)	14.3%		0.731 µM [falling, single point]
CCOC(=O)C1C(=O)NC(N2CCCCC2)=NC1c1ccco1 (stereo not given)	-14.9%		0.00461 µM [falling, full curve, poor fit]
COc1cc(OC)c(-c2nn3c(-c4ccco4)nnc3s2)cc1OC	-18.3%		18.4 µM [falling, single point]
Cc1c(NC(=O)C(C)OC(=O)CCc2c[nH]c3ccccc23)c(=O)n(-c2ccccc2)n1C (stereo not given)	16.5%		29.1 µM [rising, single point]
CCCCN(C)C(=O)c1cn(CC)c2nc(C)ccc2c1=O	30%		2.06 µM [rising, partial curve]
Cc1cc(C)c(C(=O)NC2CCCc3c2cnn3-c2ccc(C)c(C)c2)c(=O)[nH]1 (stereo not given)	-30.7%		29.1 µM [falling, single point]
Fc1ccc(Nc2nc(-c3ccncc3)cs2)cc1	59.2%	0.366 µM [rising, full curve]	
COc1ccc(Nc2nc(-c3cccs3)nc3ccccc23)c(OC)c1	3.34%		6.51 µM [falling, single point]
COc1ccc(C(=O)Oc2ccc(/C=N/Nc3ccc(Cl)c(C(=O)O)c3)cc2OC)cc1	2.02%		4.61 µM [rising, full curve]
Cc1nn(Cc2ccccc2)c(C)c1NC(=O)c1noc2c1CCc1ccccc1-2	-24.6%		
O=C1OCCN/C1=C\C(=O)c1ccccc1	-16.6%	5.8 µM [falling, single point]	6.51 µM [falling, single point]
COc1cc(O)oc1C=Nc1ccc(Cl)cc1	-14.1%		0.651 µM [falling, single point]
COc1ccc(CCNC(=O)c2ccccc2NC(=O)c2ccco2)cc1OC			0.13 µM [falling, full curve, poor fit]
CCCCCCCc1c(O)nc(SCCN(C)C)[nH]c1=O	14.9%		1.3 µM [rising, full curve, poor fit]
Cc1cccc(C(=O)NCC(c2cccs2)N2CCOCC2)c1 (stereo not given)	88.8%	5.17 µM [rising, full curve]	11.6 µM [rising, partial curve]
COc1ccccc1NC(=O)CCc1nc(-c2cccs2)no1	2.95%		
COCCN(Cc1ccccc1)C(=O)c1cc(-c2ccc(OC)c(OC)c2)nc2ccccc12	-1.33%		
COc1ccccc1/C=C1\C(=O)Nc2ccccc21	-16.2%		
C=CCOc1ccc(/C=C/C(=O)OCC(=O)N(C)CC(=O)Nc2ccc(F)cc2)cc1	25%	0.00517 µM [rising, full curve, poor fit]	
COc1cc(O)c(C(CCN2CCOCC2)c2cc(OC)c(OC)c(OC)c2)c(OC)c1 (stereo not given)			29.1 µM [rising, single point]

Compound	cell number change	AC50 [1]	AC50 [2]
Cc1cc(C(=O)N/N=C2\CC(=O)CC(C)(C)C2)c(C)n1-c1ccccc1	-9.62%	0.58 µM [rising, single point]	0.58 µM [rising, partial curve, poor fit]
Cc1[nH]c(=O)[nH]c(=O)c1S(=O)(=O)N1c2ccc(F)cc2CCC1C (stereo not given)	-90.6%	18.4 µM [falling, single point]	
Cc1ccc2nc(/C(C#N)=C\c3cc(C)n(-c4cccc([N+](=O)[O-])c4)c3C)[nH]c2c1	11.7%	2.06 µM [rising, partial curve]	
CCOC(=O)c1cc(-c2cccs2)nc2c1c(C)nn2-c1ccccn1	-26.6%	0.326 µM [rising, partial curve, poor fit]	0.461 µM [rising, partial curve, poor fit]
O=C1OCC(CO)(CO)N=C1NNc1ccc(Cl)c(Cl)c1	11.7%		0.116 µM [rising, full curve]
CCCCNC(=O)CSc1nc2c(sc(=S)n2-c2cc(Cl)ccc2OC)c(=O)[nH]1	60.6%	29.1 µM [rising, single point]	
CCOc1ccccc1C1CC(=O)Nc2cc(OC)c(OC)cc21 (stereo not given)	-33.6%	13 µM [falling, single point]	29.1 µM [falling, single point]
CCOC(=O)C1CCN(C(=S)Nc2ccc(Cl)cc2C)CC1	15.9%		
Cc1cccc(Cn2c(Sc3nc(C)cs3)nc3c2c(=O)[nH]c(=O)n3C)c1	28.2%	1.64 µM [rising, full curve, poor fit]	
O=C(NNc1ccccn1)c1ccc(Cl)nc1	5.79%		
COc1ccc(OC)c(S(=O)(=O)NCCCN2CCCC2=O)c1	-14.4%		29.1 µM [rising, single point]
O=C(NN(c1ccccc1)c1ccccc1)c1ccccc1F	-7.14%		0.00461 µM [falling, full curve, poor fit]
COc1ccc(N2CC(C(=O)N[C@@H](C)C(=O)N3CCCCC3)CC2=O)cc1 (stereo not given in full)	7.26%		
CCOC(=O)N1CCN(Cc2cn[nH]c2-c2cccc3ccccc23)CC1	5.05%		20.6 µM [rising, single point]
Cc1cc(N/C=C/C(=O)c2cccs2)ccc1F		0.651 µM [rising, single point]	
COc1ccc2nc(N3CCCCC3)c(C#N)cc2c1	-44.7%	13 µM [falling, partial curve]	1.3 µM [rising, full curve]
C=CCOC(=O)C1=C(C)NC(C)=C(C(=O)OCC=C)C1c1ccco1	4.21%		0.92 µM [rising, full curve, poor fit]
COc1ccc(C2c3c(n[nH]c3C)CC(C)(O)C2C(C)=O)cc1OC (stereo not given)	20.8%		
CCCCCCNc1cc2n(c(=O)n1)CCc1cc(OC)c(OC)cc1-2	9.37%	0.731 µM [falling, single point]	18.4 µM [falling, single point]

Structures from the list above containing a nitro group on carbon (3):
Compound	cell number change	AC50 [1]	AC50 [2]
O=C(COC(=O)c1cc([N+](=O)[O-])ccc1NCc1ccccc1Cl)NCC(F)(F)F	-14.7%		7.31 µM [falling, partial curve, poor fit]
Cn1nc([N+](=O)[O-])nc1Oc1ccccc1N	13%		
Cc1ccc2nc(/C(C#N)=C\c3cc(C)n(-c4cccc([N+](=O)[O-])c4)c3C)[nH]c2c1	11.7%	2.06 µM [rising, partial curve]	
